{"source": "paper PMC12431657", "about": "“Discovery and mechanistic insights of dibenzoylmethane as a broad spectrum inhibitor of coronavirus” (PLOS Pathogens, 2025)", "test_system": "HCoV-229E", "design": "species or system Huh-7; HTS, protection from HCoV-229E induced cell death, luminescent cell viability (CellCounting-Lite 2.0), inhibition rate", "conditions": "24 h post infection, 1 h compound pre-incubation, 10 µM, inhibitor", "note": "Structures can show the parent of a compound that is named as a salt. Where two headings read alike, the source gives them in different places. Out of some 3,300 compounds screened, about 95 (3%) showed an effect of 50% or more. The list shows a part of the results.", "data": [{"smiles": "C=C1CCCc2c(ccc3c2C(=O)C(=O)c2c(C)coc2-3)/C(C)=C/CCc2c1ccc1c2C(=O)C(=O)c2c(C)coc2-1", "note": "[Neoprzewaquinone A]", "values": [{"measurement": "229E Inhibition rate", "result": 4.9, "unit": "%"}]}, {"smiles": "Cc1ccc(C(=O)O)cc1C", "note": "[3,4-Dimethylbenzoic acid]", "values": [{"measurement": "229E Inhibition rate", "result": 23.9, "unit": "%"}]}, {"smiles": "Nc1nc(=O)c2c([nH]1)NCC(CNc1ccc(C(=O)N[C@@H](CCC(=O)O)C(=O)O)cc1)=N2", "note": "[Dihydrofolic acid]", "values": [{"measurement": "229E Inhibition rate", "result": 8.2, "unit": "%"}]}, {"smiles": "c1cn[nH]c1", "note": "[1H-pyrazole]", "values": [{"measurement": "229E Inhibition rate", "result": 8, "unit": "%"}]}, {"smiles": "COc1ccc(CC(=O)c2ccc(O)cc2O)cc1", "note": "[Ononetin]", "values": [{"measurement": "229E Inhibition rate", "result": 12.2, "unit": "%"}]}, {"smiles": "C[N+](C)(C)CC(O)CC(=O)O", "note": "(racemic) [(±)-Carnitine (chloride)]", "values": [{"measurement": "229E Inhibition rate", "result": 11.9, "unit": "%"}]}, {"smiles": "O=C1C[C@@H](C(=O)O)NC(=O)N1", "note": "[L-Dihydroorotic acid]", "values": [{"measurement": "229E Inhibition rate", "result": 10.8, "unit": "%"}]}, {"smiles": "CCC/C=C1\\OC(=O)C2=C1CC[C@H](O)[C@H]2O", "note": "[Senkyunolide I]", "values": [{"measurement": "229E Inhibition rate", "result": 43.1, "unit": "%"}]}, {"smiles": "OC[C@H]1O[C@@H](Oc2cc3c(O)cc(O)cc3[o+]c2-c2ccc(O)c(O)c2)[C@H](O)[C@@H](O)[C@@H]1O", "note": "[Kuromanin (chloride)]", "values": [{"measurement": "229E Inhibition rate", "result": 8.6, "unit": "%"}]}, {"smiles": "COc1ccc2cc1Oc1ccc(cc1)C[C@H]1c3c(cc4c(c3Oc3cc5c(cc3OC)CCN(C)[C@@H]5C2)OCO4)CCN1C", "note": "[Cepharanthine]", "values": [{"measurement": "229E Inhibition rate", "result": 3.5, "unit": "%"}]}, {"smiles": "COc1cc(C(O)C(=O)O)ccc1O", "note": "(centres unmarked) [Vanillylmandelic acid]", "values": [{"measurement": "229E Inhibition rate", "result": 10.9, "unit": "%"}]}, {"smiles": "COc1ccc(CCO[C@@H]2O[C@H](CO[C@@H]3OC[C@H](O)[C@H](O)[C@H]3O)[C@@H](OC(=O)/C=C/c3ccc(O)c(OC)c3)[C@H](O[C@@H]3O[C@@H](C)[C@H](O)[C@@H](O)[C@H]3O)[C@H]2O)cc1O", "note": "[Angoroside C]", "values": [{"measurement": "229E Inhibition rate", "result": 7.5, "unit": "%"}]}, {"smiles": "CCCCCCCCCCCCCCC(=O)O", "note": "[Pentadecanoic acid]", "values": [{"measurement": "229E Inhibition rate", "result": 21.1, "unit": "%"}]}, {"smiles": "C[C@@H]1O[C@@H](O[C@H]2[C@H](OC(=O)[C@]34CCC(C)(C)C[C@H]3C3=CC[C@@H]5[C@@]6(C)C[C@H](O)[C@H](O[C@@H]7O[C@H](CO)[C@@H](O)[C@H](O)[C@H]7O)C(CO)(CO)[C@@H]6CC[C@@]5(C)[C@]3(C)C[C@H]4O)OC[C@H](O)[C@@H]2O)[C@H](O)[C@H](O)[C@H]1O[C@@H]1OC[C@@H](O)[C@H](O[C@@H]2OC[C@](O)(CO)[C@H]2O)[C@H]1O", "note": "[Platycodin D]", "values": [{"measurement": "229E Inhibition rate", "result": 22, "unit": "%"}]}, {"smiles": "O=C(O)C1=CO[C@@H](O[C@@H]2O[C@H](CO)[C@@H](O)[C@H](O)[C@H]2O)[C@H]2[C@@H]1C=C[C@]2(O)CO", "note": "[Monotropein]", "values": [{"measurement": "229E Inhibition rate", "result": 14.4, "unit": "%"}]}, {"smiles": "C=C[C@H]1CN2CC[C@H]1C[C@@H]2[C@@H](O)c1ccnc2ccc(OC)cc12", "note": "[Quinidine hydrochloride monohydrate]", "values": [{"measurement": "229E Inhibition rate", "setting": "229E Inhibition rate, 24 h", "result": 48.6, "unit": "%"}]}, {"smiles": "O=C(O)C[C@@H]1C(=O)O[C@H]2[C@@H]3OC(=O)c4cc(O)c(O)c(O)c4-c4c(cc(O)c(O)c4O)C(=O)OC[C@H]2O[C@@H](OC(=O)c2cc(O)c(O)c(O)c2)[C@@H]3OC(=O)c2cc(O)c(O)c3c2[C@H]1[C@H](O)C(=O)O3", "note": "[Chebulagic acid]", "values": [{"measurement": "229E Inhibition rate", "result": 8.8, "unit": "%"}]}, {"smiles": "CCCCC[C@H](O)CC(=O)CCc1ccc(O)c(OC)c1", "note": "[[6]-Gingerol]", "values": [{"measurement": "229E Inhibition rate", "result": 52.8, "unit": "%"}]}, {"smiles": "Nc1nc2c(nc(O)n2[C@@H]2O[C@H](CO)[C@@H](O)[C@H]2O)c(=O)[nH]1", "note": "[8-Hydroxyguanosine]", "values": [{"measurement": "229E Inhibition rate", "result": 0, "unit": "%"}]}, {"smiles": "CC(=O)c1ccc2c(c1)C=CC(C)(C)O2", "note": "[Demethoxyencecalin]", "values": [{"measurement": "229E Inhibition rate", "result": 12.9, "unit": "%"}]}, {"smiles": "CC(=O)CC[C@@H](C)O[C@@H]1O[C@@H](C)[C@H](O)C[C@H]1O", "note": "[Ascr#2]", "values": [{"measurement": "229E Inhibition rate", "result": 7.4, "unit": "%"}]}, {"smiles": "CC1(C)CC[C@]2(C(=O)O[C@@H]3O[C@H](CO)[C@@H](O)[C@H](O)[C@H]3O)CC[C@]3(C)C(=CC[C@@H]4[C@@]5(C)CC[C@H](O[C@@H]6O[C@H](C(=O)O)[C@@H](O)[C@H](O[C@@H]7OC[C@@H](O)[C@H](O)[C@H]7O)[C@H]6O)C(C)(C)[C@@H]5CC[C@]43C)[C@@H]2C1", "note": "[Momordin IIc]", "values": [{"measurement": "229E Inhibition rate", "result": 29.6, "unit": "%"}]}, {"smiles": "O=C1C[C@@H](c2ccc(O[C@@H]3O[C@H](CO)[C@@H](O)[C@H](O)[C@H]3O)cc2)Oc2cc(O[C@@H]3OC[C@](O)(CO)[C@H]3O)ccc21", "note": "[Liguiritigenin-7-O-D-apiosyl-4'-O-D-glucoside]", "values": [{"measurement": "229E Inhibition rate", "result": 7.8, "unit": "%"}]}, {"smiles": "O=C(O)Cc1cccnc1", "note": "[3-Pyridineacetic acid]", "values": [{"measurement": "229E Inhibition rate", "result": 10.7, "unit": "%"}]}, {"smiles": "CC(=O)c1ccccc1", "note": "[Acetophenone]", "values": [{"measurement": "229E Inhibition rate", "result": 31.9, "unit": "%"}]}, {"smiles": "NCCC(=O)O", "note": "[β-Alanine]", "values": [{"measurement": "229E Inhibition rate", "result": 7.8, "unit": "%"}]}, {"smiles": "CC(=O)Cc1cc(=O)c2c(C)cc(O)c([C@@H]3O[C@H](CO)[C@@H](O)[C@H](O)[C@H]3O)c2o1", "note": "[Aloesin]", "values": [{"measurement": "229E Inhibition rate", "result": 45.8, "unit": "%"}]}, {"smiles": "COc1cc2c[n+](C)c3c4cc5c(cc4ccc3c2cc1OC)OCO5", "note": "[Nitidine (chloride)]", "values": [{"measurement": "229E Inhibition rate", "result": 3.7, "unit": "%"}]}, {"smiles": "CC1(C)CC[C@]2(C(=O)O)[C@H](O)C[C@]3(C)C(=CC[C@@H]4[C@@]5(C)C[C@H](O)[C@H](O[C@@H]6O[C@H](CO)[C@@H](O)[C@H](O)[C@H]6O)C(CO)(CO)[C@@H]5CC[C@]43C)[C@@H]2C1", "note": "[3-O-Beta-D-Glucopyranosylplatycodigenin]", "values": [{"measurement": "229E Inhibition rate", "result": 18.3, "unit": "%"}]}, {"smiles": "O=C(CO)[C@@H](O)[C@H](O)[C@H](O)CO", "note": "[D-Fructose]", "values": [{"measurement": "229E Inhibition rate", "setting": "229E Inhibition rate, 24 h", "result": 15.6, "unit": "%"}]}, {"smiles": "O=C(/C=C/c1ccc(O)c(O)c1/C=C/c1ccc(O)c(O)c1)O[C@H](Cc1ccc(O)c(O)c1)C(=O)O", "note": "[Salvianolic acid A]", "values": [{"measurement": "229E Inhibition rate", "result": 17.8, "unit": "%"}]}, {"smiles": "CC(C)=CCC1C(=O)C(C(=O)CC(C)C)=C(O)C(O)(CC=C(C)C)C1=O", "note": "(centres unmarked) [Humulone]", "values": [{"measurement": "229E Inhibition rate", "result": 9.3, "unit": "%"}]}, {"smiles": "C[C@]1(O)C[C@@H](O)[C@]2(O)C=CO[C@@H](O[C@H]3O[C@H](CO)[C@@H](O)[C@H](O)[C@H]3O)[C@@H]21", "note": "[Harpagide]", "values": [{"measurement": "229E Inhibition rate", "result": 6.1, "unit": "%"}]}, {"smiles": "CC(C)=CC[C@@H](OC(=O)C=C(C)C)C1=CC(=O)c2c(O)ccc(O)c2C1=O", "note": "[β,β-Dimethylacrylshikonin]", "values": [{"measurement": "229E Inhibition rate", "result": 50.2, "unit": "%"}]}, {"smiles": "C[C@H]1O[C@@H](O[C@H]2CC[C@]3(C)[C@H]4C=C[C@]56OC[C@@]7(CCC(C)(C)C[C@H]75)[C@@H](O)C[C@@]6(C)[C@]4(C)CC[C@H]3C2(C)C)[C@H](O)[C@@H](O[C@@H]2O[C@H](CO)[C@@H](O)[C@H](O)[C@H]2O)[C@H]1O", "note": "[Saikosaponin E]", "values": [{"measurement": "229E Inhibition rate", "result": 11.2, "unit": "%"}]}]}
